Test results as given in patent US5116974A, “3-carbalkoxyamino-5-aminoacyl-5H-dibenz[b,f]azepines, and methods for making” (Arzneimittelwerk Dresden GmbH, priority 1989, dated 1992).

Assay: in vivo
Settings: rat, iv, male or female Wistar rats, i.v. tail vein, Probit regression, confidence interval p=0.05 in parentheses, read-out: LD50 i.v. (acute tox., rat)
Source text: LD50 i.v. =lethal dose in mg/kg for 50% of the experimental animals of an orientating acute toxicity test on male or female Wistar rats of our own breed, i.v. administration in the tail vein, 3-4 dosages, 10 animals per group. Data analyzed by the Probit regression analysis with a confidence interval of p=0.05 (values given in parentheses).

CCN(CC)CC(=O)Nc1c(C)cccc1C [Lidocaine, lidocaine, reference compound]
LD50: 18 mg/kg
